Some entries share one result that the patent states for a list of compounds.
Tested on: immune system and interferon-induced gene expression in whole blood
Assay: RNAseq gene expression profiling and pathway enrichment analysis in whole blood, baseline vs after 6 weeks of treatment
Assay type: in vivo, Homo sapiens
Details: after BEZ235 monotherapy or RAD001+BEZ235 combination treatment
Experimental: Peripheral venous blood samples were collected into PAXgene Blood RNA tubes. Total RNA was purified from PAXgene collected blood and the quality and yield of the isolated RNA assessed using an Agilent 2100 Bioanalyzer (Agilent Technologies, Santa Clara, Calif., USA). RNA-Seq libraries were prepared from the RNA using the Illumina TruSeq Stranded Total RNA with the Ribo-Zero Globin Kit. This kit performed the removal of ribosomal RNA and globin mRNA in a single step. The obtained libraries were sequenced using the Illumina HiSeq2500 platform in paired-end mode to a read length of 2×76 base-pairs (bp). […] Read quality was assessed by running FastQC (version 0.10) on the FASTQ files. […] An average of 100 million 76 bp paired-end reads per sample were mapped to the Homo sapiens genome (version GRCh38) and RefSeq UCSC was used for human gene and transcript annotation. An in-house gene quantification pipeline was used to determine the number of counts mapping to each gene (Schuierer, S. & Roma, G. The exon quantification pipeline (EQP): a comprehensive approach to the quantification of gene, exon and junction expression from RNA-seq data. Nucleic acids research (2016)). On average, 88% of the total reads were mapped to the genome or the transcripts, and 30% of the aligned reads mapped to expressed sequences. […]

Cn1c(=O)n(-c2ccc(C(C)(C)C#N)cc2)c2c3cc(-c4cnc5ccccc5c4)ccc3ncc21 [BEZ235, 2-methyl-2-[4-(3-methyl-2-oxo-8-quinolin-3-yl-2,3-dihydro-imidazo[4,5-c]quinolin-1-yl)-phenyl]-propionitrile]
magnitude of ISG upregulation in whole blood: 1-9%
